# Assay results reported in patent US20150125915A1, “Method for Producing Lactic Acid” (Kao Corporation, priority 2012, published 2015).
# Some of these results come from one statement about several compounds together.
# Assay: Evaluation of foaming property by the inversion stirring method
# Assay type: physicochemical
# Details: 0.5% (w/v) in PDB medium
# Description: Each surfactant used in Test Example 2 was evaluated for its foaming properties by the inversion stirring method. 100 mL of a PDB medium non-supplemented or supplemented with 0.5% (w/v) (final concentration) of a surfactant was added to a graduated cylindrical container of 50 mm in diameter and then inversion-stirred for 300 seconds using a flat propeller while the propeller was inverted every 6 seconds at 1000 rpm. 30 seconds after the completion of stirring, the volume of foam in the medium was measured.
row,Substance,Volume of foam relative to the volume of foam in the absence of the surfactant
1,Polyoxyethylene (3) lauryl ether,≤ 6 times
2,Polyoxyethylene (4) lauryl ether,≤ 6 times
3,Polyoxyethylene (4) sorbitan monolaurate,≤ 6 times
4,Sorbitan monolaurate,≤ 6 times
5,Sorbitan monooleate,≤ 6 times
